Measurements as given in PMC11914300.
For some of these results: The comparison behind a weaker result is the experiment's own reference, which may not be listed here. For some of these results: The exact form of at least one protein or probe is not confirmed. For some of these results: At least one verdict was read from the data and is not stated in words by the source.

Amino acid sequences for entries named in this document (tags omitted).
UniProt P07910, whole entry S115D: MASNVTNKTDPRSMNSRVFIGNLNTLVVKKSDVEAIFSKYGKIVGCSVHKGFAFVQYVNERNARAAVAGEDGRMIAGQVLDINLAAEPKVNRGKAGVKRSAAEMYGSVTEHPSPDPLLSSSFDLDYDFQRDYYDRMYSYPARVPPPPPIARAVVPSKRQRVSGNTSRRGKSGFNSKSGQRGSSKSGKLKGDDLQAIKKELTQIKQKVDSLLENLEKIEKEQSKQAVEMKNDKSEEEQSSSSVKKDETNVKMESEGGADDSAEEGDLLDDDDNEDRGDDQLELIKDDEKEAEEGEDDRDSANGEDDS

What was measured:
hnRNPC2 S115D = hnRNPC2 S115D (UniProt P07910); assay: EMSA; conditions: 10 pmol RNA, EMSA: 20 mM Tris-HCl pH 8.0, 0.25 M NaCl, 1 mM DTT, 10% glycerol, 0.2 mM EDTA, 37 C, 20 min, 5% polyacrylamide gel, recombinant protein, residues 1-306, label: 5' 32P
hnRNPC2 WT = hnRNPC2 WT (UniProt P07910); assay: EMSA; conditions: 0, 2, 5, 10 uM protein, 10 pmol RNA; EMSA: 20 mM Tris-HCl pH 8.0, 0.25 M NaCl, 1 mM DTT, 10% glycerol, 0.2 mM EDTA; 37 C, 20 min; 5% polyacrylamide gel; recombinant protein; residues 1-306; label: 5' 32P
[1] = 0-10 uM protein, strongly reduced vs WT

Sequence | binding result (hnRNPC2 S115D; [1]) | binding result (hnRNPC2 S115D; 0, 2, 5, 10 uM protein, reduced vs WT) | binding result (hnRNPC2 WT)
ACCCCCUGCACACUUACCCAAUCCUUUUAG [RPL10 intron 6 3' splice site RNA] | binds more weakly | – | –
ACUCCUGCCUCUCUACUUCUGUGGCCCCAG [TRAF4 intron 5 3' splice site RNA] | – | binds more weakly | binds
AUCUCUUGGCUAUCCCUCUUGCUUCUCCAG [eIF5A intron 5 3' splice site RNA] | binds more weakly | – | –
